Data as given in PubChem BioAssay AID1259308 (NCATS, 2017).
Shown is an unselected part of about 59,000 deposited reagents. About 1,510 of them (2.6%) were called active. 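Calls use total luciferase alone and ignore viability, so some active siRNAs may act by altering cell number.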 The numbers tell different reagents against one gene apart.

- Purpose: 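Genes whose loss raises luciferase production in HEK293 cells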 (primary screen)
- Cell system: human HEK293 embryonic kidney cells stably expressing firefly luciferase (HEK-CMV-Luc2-Hygro)
- Knock-down reagent: single siRNA against human genes, 0.8 pmol siRNA per well
- Duration: 72 h
- Read-out: 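Reporter luminescence and viable-cell signal on separate replicate plates, given as percent of non-targeting control and median/MAD z-scores, plus per-cell luciferase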
- Scale: total luciferase, z-score and total luciferase, % of control: higher = more reporter protein produced; luciferase per cell, z-score: higher = more reporter output per viable cell; viable cells, % of control: higher = more viable cells
- Hit rule: 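Active when the median/MAD z-score for overall luciferase is greater than 3; a gene was taken forward for validation with new siRNAs if at least two of its three siRNAs passed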
- Meaning of the calls: active = raised luciferase; inactive = no rise

| gene | reagent | total luciferase, z-score | total luciferase, % of control | luciferase per cell, z-score | viable cells, % of control | activity call |
| --- | --- | --- | --- | --- | --- | --- |
| PLEKHA6 (pleckstrin homology domain containing A6) | 1 | 2.89 | 139 | 1.48 | 106 | inactive |
| PLEKHA6 (pleckstrin homology domain containing A6) | 2 | 0.0953 | 83.8 | -0.365 | 103 | inactive |
| PLEKHA6 (pleckstrin homology domain containing A6) | 3 | 3.82 | 158 | 3.32 | 73.6 | active |
| TOMM22P5 (TOMM22 pseudogene 5) | 1 | 0.974 | 101 | -0.222 | 120 | inactive |
| TOMM22P5 (TOMM22 pseudogene 5) | 2 | -0.338 | 75.2 | -0.55 | 97.1 | inactive |
| TOMM22P5 (TOMM22 pseudogene 5) | 3 | 0.414 | 90.1 | -0.068 | 103 | inactive |
| DDX1 (DEAD-box helicase 1) | 1 | -0.676 | 68.4 | -1.26 | 107 | inactive |
| DDX1 (DEAD-box helicase 1) | 2 | -0.0554 | 80.8 | -0.736 | 110 | inactive |
| DDX1 (DEAD-box helicase 1) | 3 | -0.172 | 78.5 | -0.518 | 100 | inactive |
| NUB1 (negative regulator of ubiquitin like proteins 1) | 1 | 1.2 | 106 | 1.14 | 87.6 | inactive |
| NUB1 (negative regulator of ubiquitin like proteins 1) | 2 | 0.0562 | 83 | -0.196 | 97.7 | inactive |
| NUB1 (negative regulator of ubiquitin like proteins 1) | 3 | 0.648 | 94.8 | 0.33 | 97.1 | inactive |
| CTSL (cathepsin L) | 1 | 2.37 | 129 | 0.694 | 120 | inactive |
| CTSL (cathepsin L) | 2 | 0.541 | 92.7 | 0.287 | 96 | inactive |
| CTSL (cathepsin L) | 3 | -0.685 | 68.3 | -1.05 | 101 | inactive |
| CSMD3 (CUB and Sushi multiple domains 3) | 1 | 1.1 | 104 | -0.05 | 118 | inactive |
| CSMD3 (CUB and Sushi multiple domains 3) | 2 | -1.33 | 55.5 | -1.66 | 96 | inactive |
| CSMD3 (CUB and Sushi multiple domains 3) | 3 | 0.757 | 96.9 | 1.18 | 79.4 | inactive |
| MYO6 (myosin VI) | 1 | -0.166 | 78.6 | -0.393 | 97.4 | inactive |
| MYO6 (myosin VI) | 2 | 0.518 | 92.2 | 0.0728 | 101 | inactive |
| MYO6 (myosin VI) | 3 | -0.0488 | 80.9 | 0.369 | 82 | inactive |
| PLOD2 (procollagen-lysine,2-oxoglutarate 5-dioxygenase 2) | 1 | 0.283 | 87.5 | -0.0841 | 100 | inactive |
| PLOD2 (procollagen-lysine,2-oxoglutarate 5-dioxygenase 2) | 2 | 2.06 | 123 | 2.33 | 74.3 | inactive |
| PLOD2 (procollagen-lysine,2-oxoglutarate 5-dioxygenase 2) | 3 | -0.842 | 65.1 | -0.639 | 86.1 | inactive |
